Structures can show the parent of a compound that is named as a salt. Some of the results follow. Single values are uncertain here, since repeats match poorly.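 In a drug-repurposing library screen, luminescence reads luciferase driven by eight TEAD-binding elements, stably integrated into human kidney-derived cells. Compounds scoring over five robust Z scores above the plate mean are called hits.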
System: HEK293A TEAD-LUC reporter
Assay: TEAD-luciferase reporter activity (YAP activation), robust Z score vs plate; higher = stronger YAP/TEAD activation
Settings: 24 h

Structure (SMILES) | TEAD-luciferase reporter activity (compound concentration: 200 nM) | TEAD-luciferase reporter activity (compound concentration: 2 uM) | TEAD-luciferase reporter activity (compound concentration: 10 uM)
CC(C)NCC(O)COc1ccc(CCNC(=O)NC(C)C)cc1 (centres undefined) | inactive: 0.277 | inactive: 0.182 | inactive: -1.35
O=C1NCCc2[nH]c(-c3ccncc3)cc21 [Cdc7/Cdk9 Inhibitor] | inactive: -1.26 | inactive: 4.04 | inactive: 0.591
CCCCCCCCCCCCCCCC[N+](C)(C)CC [mecetronium ethylsulfate] | inactive: -1.38 | inactive: -1.86 | inactive: -1.34
CCCCC/C=C\C/C=C\C/C=C\CCCCC(=O)OC(COC(=O)CCCCCCC/C=C\C/C=C\CCCCC)COC(=O)CCCCCCC/C=C\C/C=C\CCCCC | inactive: -1.72 | inactive: -0.167 | inactive: -0.288
Nc1cnc(-c2cc(Cl)cc(Cl)c2Cl)c(N)n1 [Elpetrigine] | inactive: -0.564 | inactive: -0.294 | inactive: 0.229
CCNc1cc(-c2csc(N(C)C(=O)c3ccc(F)cc3)n2)ncn1 | inactive: 0.165 | inactive: 0.164 | inactive: 2.55
COc1cc(N)c(Cl)cc1C(=O)N[C@H]1C[C@H]2CCC[C@@H](C1)N2CC(=O)O | inactive: -2.41 | inactive: 0.422 | inactive: 1.02
CCCCCCCCCCCCCCCCCCOC[C@H](COP(=O)([O-])OCC[N+](C)(C)C)OC [Edelfosine] | inactive: -0.624 | – | inactive: -0.929
COc1ccc(CN2CCCC23Cc2ccccc2CNC3=O)cc1OC (centres undefined) | inactive: -0.542 | – | inactive: -0.755
Cc1cc(Cl)cc(Cl)c1CN1Cc2ncccc2C1=O | inactive: -1.56 | inactive: -1.29 | inactive: -0.578
CC(C)(C)c1[nH]cnc1/C=c1\[nH]c(=O)/c(=C/c2ccccc2)[nH]c1=O [plinabulin] | inactive: 3.99 | active: 9.68 | active: 8.96
C[C@@H]1CN(C(=O)c2cc3c(C(=O)OC(C)(C)C)ncn3c3ccc(Cl)cc23)C[C@H](C)N1 | inactive: 0.289 | inactive: -0.447 | inactive: 0.713
NC(CC1CCCCC1)C(=O)N[C@H](CCC(=O)O)C(=O)NCC(=O)O (some centres undefined) | inactive: -2 | inactive: 0.243 | inactive: 0.405
CC(=O)[C@@]12OC(C)(C)O[C@@H]1C[C@H]1[C@@H]3CCC4=CC(=O)CC[C@]4(C)[C@H]3CC[C@@]12C [Algestone Acetonide] | inactive: 0.822 | inactive: -0.476 | inactive: -0.189
COc1cc(F)c(C(C)C)cc1-c1ccc(C(F)(F)F)cc1CN1C(=O)O[C@H](c2cc(C(F)(F)F)cc(C(F)(F)F)c2)[C@@H]1C [anacetrapib] | – | inactive: -1.09 | –
COc1cc(F)c(C(C)C)cc1-c1ccc(C(F)(F)F)cc1CN1C(=O)O[C@H](c2cc(C(F)(F)F)cc(C(F)(F)F)c2)[C@@H]1C [Anacetrapib/MK-0859] | inactive: -0.546 | – | inactive: -0.00342
O=c1c(-c2ccc(Cl)cc2)coc2cc(O)ccc12 | inactive: 1.75 | inactive: 0.0586 | active: 18.4
COc1ccc2c(c1)N(c1ccccc1F)C(=O)[C@]2(CCC(=O)O)NC(=O)c1cc2ccccc2cn1 | inactive: -0.564 | inactive: -0.221 | inactive: -0.454
O=C(O)CCCC/C=C(\c1ccccc1)c1cccnc1 [Isbogrel] | inactive: -1.47 | inactive: -0.529 | inactive: 2.47
O=C(NO)C1(CS(=O)(=O)c2ccc(Oc3ccc(Cl)cc3)cc2)CCOCC1 [transplant therapy, Conatus Pharmaceuticals] | inactive: 1.21 | inactive: 0.506 | inactive: 0.543
O=C(c1ccc(C(F)(F)F)cc1)N1CCC(N2Cc3ccccc3C2=O)CC1 | inactive: -2.54 | – | inactive: 0.627
CC(C)NC(=O)[C@H]1CC[C@@H](n2c(NC(=O)c3ccc(F)cc3)nc3ccc(CN4CCC(C(C)(C)O)CC4)cc32)CC1 | inactive: -0.855 | inactive: -1.54 | inactive: 0.0893
COc1cc([C@@H]2CC[C@@H](c3cc(OC)c(OC)c(OC)c3)O2)cc(CNC(=O)N(C)O)c1OCCSc1ccc(Cl)cc1 | inactive: 0.317 | inactive: -0.0242 | inactive: 0.91
O=C(c1ccc2c(c1)OCO2)N1CC2(Cc3ccccc3NC2=O)C1 | inactive: -2.97 | – | inactive: -1.37
CC(C)(C)CC(=O)N1CCN(c2cc(C(F)(F)F)ccn2)CC1 | inactive: -0.838 | inactive: 0.282 | inactive: -0.246
Cc1nc([N+](=O)[O-])cn1-c1ccc([N+](=O)[O-])cc1 [Nitrefazole] | inactive: -0.581 | inactive: -1.07 | inactive: 0.562

Structure (SMILES) | TEAD-luciferase reporter activity (compound concentration: 200 nM) | TEAD-luciferase reporter activity (compound concentration: 2 uM) | TEAD-luciferase reporter activity (compound concentration: 10 uM)
CC#CC(=O)N1CCC[C@H]1c1nc(-c2ccc(C(=O)Nc3ccccn3)cc2)c2c(N)nccn12 [Acalabrutinib] | inactive: -0.773 | inactive: -1.43 | inactive: 3.74
CCOC(=O)C[C@@H](O)CC(O)/C=C/C1=C(c2ccc(F)cc2)c2ccccc2OC12CCCC2 (some centres undefined) | inactive: -1.1 | inactive: -0.332 | inactive: -1.12
COc1c(N2CCC/C(=C(\F)CN)C2)c(F)cc2c(=O)c(C(=O)O)cn(C3CC3)c12 | inactive: 0.813 | inactive: -0.822 | inactive: -0.931
O=C(O)COc1cccc2c1CC[C@](O)(COC(=O)N(c1ccccc1)c1ccccc1)C2 | inactive: -0.0458 | inactive: 0.0406 | inactive: 0.372
CCCn1c(=O)c2[nH]cnc2n(-c2ccc(Cl)cc2)c1=O [Arofylline] | inactive: -0.846 | inactive: -1.2 | inactive: 2.26
CC/N=C(\NCC)NCCCCC(NC(=O)[C@H](Cc1ccc(O)cc1)NC(=O)[C@@H](CO)NC(=O)[C@@H](Cc1cccnc1)NC(=O)C(Cc1ccc(Cl)cc1)NC(=O)[C@H](Cc1ccc2ccccc2c1)NC(C)=O)C(=O)NC(CC(C)C)C(=O)NC(CCCCN/C(=N/CC)NCC)C(=O)N1CCC[C@@H]1C(=O)N[C@H](C)C(N)=O (some centres undefined) [Ganirelix acetate] | inactive: -0.712 | – | inactive: -0.516
CC/N=C(\NCC)NCCCCC(NC(=O)[C@H](Cc1ccc(O)cc1)NC(=O)[C@@H](CO)NC(=O)[C@@H](Cc1cccnc1)NC(=O)C(Cc1ccc(Cl)cc1)NC(=O)[C@H](Cc1ccc2ccccc2c1)NC(C)=O)C(=O)NC(CC(C)C)C(=O)NC(CCCCN/C(=N/CC)NCC)C(=O)N1CCC[C@@H]1C(=O)N[C@H](C)C(N)=O (some centres undefined) [Ganirelix] | – | inactive: -1.24 | –
CCC(CC)Oc1cc(C)nc(Oc2c(C)cc(C)cc2C)c1C | inactive: -0.87 | inactive: -1.65 | inactive: -1.04
CC[C@H]1Cn2nc(-c3ccc(Cl)cc3Cl)c3nc(C)cc(c32)N1CC1CC1 | inactive: 2 | inactive: -0.897 | inactive: 0.958
CCCN(c1ccncc1F)n1cc(C)c2ccccc21 | inactive: 1.1 | inactive: -1.52 | inactive: 0.898
CC(C)C(C)(C)C [triptan, inhaled] | – | inactive: -1.27 | –
CC(C)C(C)(C)C [triptan, inhaled, Vectura] | inactive: -1.41 | – | inactive: -1.28
O=C(O)CCC(=O)Nc1ccc(S(=O)(=O)c2ccc(NC(=O)CCC(=O)O)cc2)cc1 | inactive: -0.738 | inactive: 2.09 | inactive: 4.42
N=C(N)NC(=N)N1CCOCC1 | inactive: -0.986 | inactive: -0.995 | inactive: -0.573
N=C(N)NC(=N)N1CCOCC1 [moroxydinechloride] | – | inactive: 0.511 | –
CC1=N[C@H](C(=O)O)[C@@H](O)CN1 [Hydroxyectoine] | inactive: -0.956 | – | inactive: 2.97
CCOc1ccc(NC(C)=O)cc1 | inactive: 0.173 | inactive: 0.333 | inactive: 0.45
O=C1CN(S(=O)(=O)/C=C/c2ccc(Cl)s2)CCN1Cc1cc2cnccc2[nH]1 | inactive: -0.79 | inactive: -0.936 | inactive: -0.11
Cc1cc(NC(=O)C(=O)c2cc(Cc3ccc(C#N)cc3)n3ccccc23)sn1 | inactive: 1.14 | inactive: 1.19 | active: 6.12
NCCCC[C@H](NC(=O)[C@@H]1CCCN1C(=O)[C@@H]1CSSC[C@H](N)C(=O)N[C@@H](Cc2ccccc2)C(=O)N[C@@H](Cc2ccccc2)C(=O)N[C@@H](CCC(N)=O)C(=O)N[C@@H](CC(N)=O)C(=O)N1)C(=O)NCC(N)=O [Felypressin] | inactive: 0.417 | inactive: 1.01 | inactive: -0.364
CCCCNc1ccc(C(=O)OCC[NH+](CC)CC)c(O)c1 | inactive: 2.75 | inactive: 0.215 | inactive: 3.56
Oc1ccc(CCCCNC[C@@H](O)c2ccc(O)c(O)c2)cc1 | inactive: -2.42 | inactive: -0.0749 | inactive: -0.658
Cc1cc(C)c(NC(=O)C[C@H](CC(=O)O)c2cccc3ccccc23)c(C(=O)N2CCC3(CCCC3)CC2)c1 [itriglumide] | inactive: -2 | inactive: 1.91 | inactive: -1.08
CN(C)c1nc(O)c(-c2ccccc2)o1 | inactive: 0.694 | inactive: 0.486 | inactive: -0.817
CCCN1CCCC12Cc1ccccc1CN(C(=O)CNC(C)=O)C2 (centres undefined) | inactive: 2.09 | – | inactive: 1.7
CC(C)(C)c1cc(NC(=O)Nc2ccc(-c3cn4c(n3)sc3cc(OCCN5CCOCC5)ccc34)cc2)no1 [quizartinib dihydrochloride] | inactive: -0.308 | inactive: -1.14 | inactive: -0.145

An excerpt of these results, in CSV form:
Structure (SMILES),TEAD-luciferase reporter activity (compound concentration: 200 nM),TEAD-luciferase reporter activity (compound concentration: 2 uM),TEAD-luciferase reporter activity (compound concentration: 10 uM)
CCOC(=O)C[C@@H](O)CC(O)/C=C/C1=C(c2ccc(F)cc2)c2ccccc2OC12CCCC2 (some centres undefined),inactive: -1.1,inactive: -0.332,inactive: -1.12
CCCN(c1ccncc1F)n1cc(C)c2ccccc21,inactive: 1.1,inactive: -1.52,inactive: 0.898
CC1=N[C@H](C(=O)O)[C@@H](O)CN1 [Hydroxyectoine],inactive: -0.956,–,inactive: 2.97

Source: the supplement of paper PMC10735217
